{"source": "paper PMC5913281", "target": "ErbB2/HER2 (human (endogenous in MKN45)) (UniProt P04626)", "experiment": "co-IP; endogenous proteins in MKN45 whole cell extracts; lysis buffer 50 mM Tris (pH 7.4), 100 mM NaCl, 0.1 mM EDTA; immunoprecipitation with anti-SOS1 or anti-HER2 antibody (normal rabbit IgG as control) at 4 °C overnight, Protein G Sepharose; immunoblot for HER2 and SOS1", "note": "These are yes or no findings as the source states them, for the method shown. Binding seen in cells or lysates may run through a third protein. Some results given as binding are weak or reduced against the parent protein; the word gives no strength."}
{"substance": "son of sevenless homolog 1 (SOS1) (from UniProt Q07889 1-1333)", "values": [{"measurement": "binding", "result": "binds"}]}
